PubChem BioAssay AID1259272, Sanger Institute | 2017
The whole screen tested 794 reagents; shown is an unselected part. 7 of all reagents (0.88%) count as active. 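Essential calls reflect knock-down without drug only, not synergy with drugs; drug exposure length not given.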 Entries without a mark were called inactive. No viability above 1 is reported: the scale is capped. Not all columns of the deposit are shown. Reagent sequences are not shown. The record does not give: the amount of reagent, the time to read-out.

Test: 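Kinome-wide siRNA search for genes whose silencing boosts targeted drug effects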 (primary screen)
System: SW1116 human colorectal cancer cells
Knock-down reagent: siRNA pool against human genes
Conditions: anchor drugs BYL719 (1 µM), cetuximab (5 µg/ml) or trametinib (10 nM), or DMSO vehicle; exposure length not given
Detection: 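Cell survival as a fraction of wells given a non-targeting pool, averaged over replicates; robust z-score without drug; synergy score for each of BYL719, cetuximab and trametinib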
Reading the numbers: viability z-score, no drug: higher = more cells remaining; strongly negative means essential gene; viability, no drug: higher = more viable cells; synergy score with BYL719: higher = stronger synthetic-lethal synergy with the drug
Rule for the call: 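a robust z-score under -3 with siRNA and no drug marks the gene essential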
Meaning of the calls: active = essential (knock-down alone); inactive = no change

| gene knocked down | viability z-score, no drug | viability, no drug (fraction of control) | synergy score with BYL719 |
| --- | --- | --- | --- |
| PI4KB (phosphatidylinositol 4-kinase beta) | 0.238 | 0.936 | -0.138 |
| TAOK2 (TAO kinase 2) | 0.406 | 0.954 | -0.122 |
| EPHB3 (EPH receptor B3) | -1.81 | 0.717 | -0.158 |
| ALPK2 (alpha kinase 2) | -0.418 | 0.866 | -0.116 |
| MAP2K5 (mitogen-activated protein kinase kinase 5) | 0.0662 | 0.917 | -0.112 |
| KIT (KIT proto-oncogene, receptor tyrosine kinase) | 0.842 | 1 | -0.0788 |
| YES1 (YES proto-oncogene 1, Src family tyrosine kinase) | -0.957 | 0.808 | -0.242 |
| GRK2 (G protein-coupled receptor kinase 2) | 0.842 | 1 | 0.0617 |
| NRBP1 (nuclear receptor binding protein 1) | -0.584 | 0.848 | -0.0538 |
| TNNI3K (TNNI3 interacting kinase) | -0.447 | 0.863 | -0.205 |
| DLG4 (discs large MAGUK scaffold protein 4) | 0.842 | 1 | 0.0868 |
| GUCY2D (guanylate cyclase 2D, retinal) | -2.86 | 0.605 | -0.222 |
| CDK18 (cyclin dependent kinase 18) | 0.842 | 1 | 0.0499 |
| CDK13 (cyclin dependent kinase 13) | 0.449 | 0.958 | -0.0468 |
| DAPK2 (death associated protein kinase 2) | 0.263 | 0.938 | 0.0128 |
| CDK7 (cyclin dependent kinase 7) | 0.842 | 1 | -0.0302 |
| ACVRL1 (activin A receptor like type 1) | 0.842 | 1 | 0.00907 |
| CDK5 (cyclin dependent kinase 5) | 0.276 | 0.94 | -0.0805 |
| RPS6KA6 (ribosomal protein S6 kinase A6) | 0.842 | 1 | 0.0718 |
| CDK10 (cyclin dependent kinase 10) | -1.88 | 0.71 | -0.136 |

3 consecutive entries from above, quoted:
| gene knocked down | viability z-score, no drug | viability, no drug (fraction of control) | synergy score with BYL719 |
| --- | --- | --- | --- |
| CDK13 (cyclin dependent kinase 13) | 0.449 | 0.958 | -0.0468 |
| DAPK2 (death associated protein kinase 2) | 0.263 | 0.938 | 0.0128 |
| CDK7 (cyclin dependent kinase 7) | 0.842 | 1 | -0.0302 |
